In PMC5384239:
These are yes or no findings as the source states them, for the method shown. Some entries that bind do so weakly or less than the wild type.

Amino acid sequences for entries named in this document (tags omitted).
UniProt P63104: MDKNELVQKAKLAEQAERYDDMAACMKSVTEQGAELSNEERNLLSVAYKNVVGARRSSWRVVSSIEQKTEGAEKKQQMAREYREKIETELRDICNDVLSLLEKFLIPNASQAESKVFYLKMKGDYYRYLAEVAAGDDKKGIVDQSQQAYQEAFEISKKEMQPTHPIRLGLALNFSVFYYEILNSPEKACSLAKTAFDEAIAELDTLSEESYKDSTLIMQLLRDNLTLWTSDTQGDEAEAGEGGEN
UniProt Q29495: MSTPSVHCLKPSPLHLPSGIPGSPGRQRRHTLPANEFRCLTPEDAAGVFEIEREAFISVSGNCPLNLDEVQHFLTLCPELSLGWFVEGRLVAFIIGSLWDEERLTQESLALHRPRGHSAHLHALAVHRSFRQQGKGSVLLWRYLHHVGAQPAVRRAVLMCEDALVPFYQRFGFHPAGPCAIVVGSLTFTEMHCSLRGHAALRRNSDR

Target: 14-3-3 protein ζ isoform (UniProt P63104)
Assay: stopped-flow polarized fluorescence; kinetics of binding followed by changes in the polarized fluorescence intensity of the AANAT-GFP fusion protein; AANAT phosphorylated at Thr31; 0.1 M Hepes, pH 6.8, 8 °C

binding: binds
Substance: aralkylamine N-acetyltransferase (AANAT), wild type, phosphorylated at Thr31, GFP fusion (from UniProt Q29495 1-207) (enzyme)
